Results deposited as PubChem BioAssay AID504804 (Drosophila RNAi Screening Center, 2011).
In all, the deposit lists about 19,000 reagents; below is an unselected part of those that have a named target and a result. In the full data, 47 (0.25%) got an active call. 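Signals are raw, not normalised; exact z-scores behind calls not deposited; actives needed confirmation, so some wells reaching 2 SD are inactive.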 A plus sign joins genes that one reagent is predicted to hit.

- Test: 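Fly genes whose loss lessens doxorubicin-driven cell death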 (primary screen)
- Cell system: Drosophila Kc cells
- Reagent: long dsRNA against Drosophila genes, 0.5 µg dsRNA per well
- Timing: 96 h (48 h knock-down, then 48 h drug)
- Treatment: doxorubicin 5 µg/ml for 48 h, added 48 h after dsRNA
- Detection: 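Viability measured as cellular ATP by luminescence after 48 h knock-down then 48 h doxorubicin at 5 µg/ml; unnormalised plate counts for each replicate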
- Scale: raw ATP luminescence: higher = more viable cells, protection from doxorubicin
- Active means: 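z-score of 2 or more over plate mean in both duplicates, retained only when retests and separate dsRNAs confirm the protection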

Target gene	amplicon	raw ATP luminescence, replicate 1	raw ATP luminescence, replicate 2	call
htl (GeneID 42160)	DRSC16968	34703	33523	inactive
BHD (GeneID 38793)	DRSC11017	47173	39033	inactive
Apc2 (GeneID 42871)	DRSC14115	44233	62160	inactive
Ns2 (GeneID 36989)	DRSC06993	77670	53837	inactive
CG31013 (GeneID 326111)	DRSC16542	57400	40210	inactive
mRpS7 (GeneID 34412)	DRSC02814	91867	84273	inactive
CG8176 (GeneID 261329)	DRSC16394	64380	62293	inactive
CG15209 (GeneID 32011)	DRSC19655	3.68e5	3.17e5	inactive
Fuca (GeneID 3772574)	DRSC10591	60407	69223	inactive
CG13474 (GeneID 39600)	DRSC10018	60337	51617	inactive
CG32718 (GeneID 318168)	DRSC17538	2.09e5	2.33e5	inactive
CG7509 (GeneID 38579)	DRSC08596	38957	35097	inactive
CG31091 (GeneID 318591)	DRSC15933	71390	47860	inactive
CG4554 (GeneID 37570)	DRSC04473	59400	70643	inactive
CG12607 (GeneID 38547)	DRSC08287	62340	63953	inactive
Hr3 (GeneID 36073)	DRSC06118	21620	35040	inactive
Hr3 (GeneID 36073)	DRSC07441	65133	53837	inactive
Mrp5 (GeneID 42362)	DRSC15597	53360	51270	inactive
Mrp5 (GeneID 42362)	DRSC15598	84640	69290	inactive
Marf1 (GeneID 49895)	DRSC03747	45560	38870	inactive
Marf1 (GeneID 49895)	DRSC03774	64237	61267	inactive
CG5276 (GeneID 41373)	DRSC15759	58073	55667	inactive
Nmt (GeneID 38909)	DRSC11236	54847	81930	inactive
CG5704 (GeneID 48613)	DRSC08572	51493	44760	inactive
CG18081 (GeneID 39725)	DRSC10294	91803	59227	inactive
M1BP (GeneID 41042)	DRSC16566	40500	17093	inactive
Dhit (GeneID 37037)	DRSC07411	62820	67423	inactive
CG17780 + CG17781	DRSC15266	61850	63490	inactive
CCKLR-17D3 (GeneID 32864)	DRSC20015	3.35e5	2.41e5	inactive
CCKLR-17D3 (GeneID 32864)	DRSC20017	2.53e5	2.07e5	inactive
PolE2 (GeneID 38661)	DRSC09737	65407	33957	inactive
CG13476 (GeneID 39602)	DRSC10019	39417	30560	inactive
Jhbp14 (GeneID 34728)	DRSC01988	47320	57400	inactive
CG9667 (GeneID 40960)	DRSC16535	76077	66053	inactive

6 entries from above, set out differently.
| Target gene | amplicon | raw ATP luminescence, replicate 1 | raw ATP luminescence, replicate 2 | call |
| --- | --- | --- | --- | --- |
| Dhit (GeneID 37037) | DRSC07411 | 62820 | 67423 | inactive |
| CG17780 + CG17781 | DRSC15266 | 61850 | 63490 | inactive |
| CCKLR-17D3 (GeneID 32864) | DRSC20015 | 3.35e5 | 2.41e5 | inactive |
| CCKLR-17D3 (GeneID 32864) | DRSC20017 | 2.53e5 | 2.07e5 | inactive |
| PolE2 (GeneID 38661) | DRSC09737 | 65407 | 33957 | inactive |
| CG13476 (GeneID 39602) | DRSC10019 | 39417 | 30560 | inactive |
